For assay [1], the target named is His-cynomolgus monkey LIGHT (cynomolgus monkey). The assay is described as follows: ELISA, His-cynoLIGHT coated.
The target in assay [2] is His-human LIGHT (human). Put plainly: ELISA, His-huLIGHT coated.

These are yes or no findings as the source states them, for the method shown. Some results given as binding are weak or reduced against the parent protein; the word gives no strength.

B1: hum_LT-m37-13 (antibody, human IgG4, V domains shown)
VH: QVQLVQSGAEVKKPGASVKVSCKASGYSFTGYFINWVRQAPGQGLEWIGRIYPYNVDTFYNQNFKGRVTMTADKSTSTAYMELSSLRSEDTAVYYCGRGTHYYGSSGAMDYWGQGTLVTVSS
VL: EIVLTQSPATLSVSPGERATLSCKASQNVGTAVAWYQQKPGQSPRLLIYSASNRYTGIPARFSGSGSGTEFTLTISSLQSEDFAVYFCQQYSSYPYTFGGGTKVEIK
Take B1: the binding result in assay [1] and in assay [2] was “binds” in each case.

The values are drawn from patent publication EP4596580A1.
